Measurements from doi:10.1101/2020.09.17.301283.
These are yes or no findings as the source states them, for the method shown. In cells and extracts the contact can be indirect. Some binding calls cover weakened binding; strength is not graded here.

By UniProt entry, the sequences of proteins in these tests, tags left out.
UniProt P18848: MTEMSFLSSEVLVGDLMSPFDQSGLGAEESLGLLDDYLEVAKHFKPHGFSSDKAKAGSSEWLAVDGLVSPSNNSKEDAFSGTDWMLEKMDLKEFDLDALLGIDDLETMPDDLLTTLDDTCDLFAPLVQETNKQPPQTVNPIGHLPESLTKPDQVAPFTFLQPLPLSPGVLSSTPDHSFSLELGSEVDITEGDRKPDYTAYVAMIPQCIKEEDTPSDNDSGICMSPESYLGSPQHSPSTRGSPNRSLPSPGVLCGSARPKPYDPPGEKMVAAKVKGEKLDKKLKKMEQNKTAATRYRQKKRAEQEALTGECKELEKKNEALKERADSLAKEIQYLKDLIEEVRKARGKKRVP

Target: ATF4 (human (endogenous in 22rv1)) (UniProt P18848)
Assay: proximity ligation

B1: Schlafen family member 5 (SLFN5) (protein, UniProt Q08AF3 1-891)
chain: MSLRIDVDTNFPECVVDAGKVTLGTQQRQEMDPRLREKQNEIILRAVCALLNSGGGIIKAEIENKGYNYERHGVGLDVPPIFRSHLDKMQKENHFLIFVKSWNTEAGVPLATLCSNLYHRERTSTDVMDSQEALAFLKCRTQTPTNINVSNSLGPQAAQGSVQYEGNINVSAAALFDRKRLQYLEKLNLPESTHVEFVMFSTDVSHCVKDRLPKCVSAFANTEGGYVFFGVHDETCQVIGCEKEKIDLTSLRASIDGCIKKLPVHHFCTQRPEIKYVLNFLEVHDKGALRGYVCAIKVEKFCCAVFAKVPSSWQVKDNRVRQLPTREWTAWMMEADPDLSRCPEMVLQLSLSSATPRSKPVCIHKNSECLKEQQKRYFPVFSDRVVYTPESLYKELFSQHKGLRDLINTEMRPFSQGILIFSQSWAVDLGLQEKQGVICDALLISQNNTPILYTIFSKWDAGCKGYSMIVAYSLKQKLVNKGGYTGRLCITPLVCVLNSDRKAQSVYSSYLQIYPESYNFMTPQHMEALLQSLVIVLLGFKSFLSEELGSEVLNLLTNKQYELLSKNLRKTRELFVHGLPGSGKTILALRIMEKIRNVFHCEPANILYICENQPLKKLVSFSKKNICQPVTRKTFMKNNFEHIQHIIIDDAQNFRTEDGDWYGKAKFITQTARDGPGVLWIFLDYFQTYHLSCSGLPPPSDQYPREEINRVVRNAGPIANYLQQVMQEARQNPPPNLPPGSLVMLYEPKWAQGVPGNLEIIEDLNLEEILIYVANKCRFLLRNGYSPKDIAVLFTKASEVEKYKDRLLTAMRKRKLSQLHEESDLLLQIGDASDVLTDHIVLDSVCRFSGLERNIVFGINPGVAPPAGAYNLLLCLASRAKRHLYILKASV
- binding: binds
